{
  "source": "patent US20220296594A1",
  "about": "“POTENTIATORS OF ANTIMICROBIAL AND/OR ANTIVIRAL AGENTS” (MASSACHUSETTS INSTITUTE OF TECHNOLOGY, priority 2019, published 2022)",
  "origin": "cited, not measured here",
  "conditions": "in vivo, cited from earlier work",
  "data": [
    {"smiles": "Cc1cc(NS(=O)(=O)c2ccc(N)cc2)no1", "note": "[sulfamethoxazole, Sulfamethoxazole]", "values": [
      {"measurement": "Tmax (time to reach maximum drug concentration in plasma)", "setting": "po", "result": "1 to 4", "unit": "h"},
      {"measurement": "bound to plasma proteins", "result": "About 70%"}
    ]}
  ]
}
